PubChem BioAssay AID1259308 – NCATS – 2017
The deposit covers about 59,000 reagents; this is a random part of them. In the full data, about 1,510 (2.6%) are marked active. 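Calls use total luciferase alone and ignore viability, so some active siRNAs may act by altering cell number.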 The numbers tell different reagents against one gene apart. Not all columns of the deposit are shown.

- Assay: 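Knock-downs that increase output of a recombinant reporter protein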 (primary screen)
- System: human HEK293 embryonic kidney cells stably expressing firefly luciferase (HEK-CMV-Luc2-Hygro)
- Knock-down reagent: single siRNA against human genes, 0.8 pmol siRNA per well
- Duration: 72 h
- Detection: 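Reporter luminescence and viable-cell signal on separate replicate plates, given as percent of non-targeting control and median/MAD z-scores, plus per-cell luciferase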
- Reading the numbers: total luciferase, z-score and total luciferase, % of control: higher = more reporter protein produced
- Active means: 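An siRNA counts as active if its total luciferase robust z-score exceeds 3; genes with two or more such siRNAs out of three were retested with fresh siRNAs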
- Meaning of the calls: active = raised luciferase; inactive = no rise

PEPD #1 — total luciferase, z-score: 2.81; total luciferase, % of control: 138; call: inactive
PEPD #2 — total luciferase, z-score: 2.66; total luciferase, % of control: 135; call: inactive
PEPD #3 — total luciferase, z-score: -0.105; total luciferase, % of control: 79.8; call: inactive
DIRC3 #1 — total luciferase, z-score: 0.566; total luciferase, % of control: 93.1; call: inactive
DIRC3 #2 — total luciferase, z-score: -1.37; total luciferase, % of control: 54.6; call: inactive
DIRC3 #3 — total luciferase, z-score: 3.14; total luciferase, % of control: 144; call: active
SPESP1 #1 — total luciferase, z-score: -0.287; total luciferase, % of control: 76.2; call: inactive
SPESP1 #2 — total luciferase, z-score: -1.71; total luciferase, % of control: 48; call: inactive
SPESP1 #3 — total luciferase, z-score: -0.182; total luciferase, % of control: 78.3; call: inactive

Entries above whose gene name starts with P or p:
PEPD #1 — total luciferase, z-score: 2.81; total luciferase, % of control: 138; call: inactive
PEPD #2 — total luciferase, z-score: 2.66; total luciferase, % of control: 135; call: inactive
PEPD #3 — total luciferase, z-score: -0.105; total luciferase, % of control: 79.8; call: inactive

Further records follow:
AVPI1 #1 — total luciferase, z-score: 0.689; total luciferase, % of control: 95.6; call: inactive
AVPI1 #2 — total luciferase, z-score: 0.12; total luciferase, % of control: 84.3; call: inactive
AVPI1 #3 — total luciferase, z-score: 1.48; total luciferase, % of control: 111; call: inactive
SIGLEC10 #1 — total luciferase, z-score: -1.05; total luciferase, % of control: 61.1; call: inactive
SIGLEC10 #2 — total luciferase, z-score: 0.698; total luciferase, % of control: 95.8; call: inactive
SIGLEC10 #3 — total luciferase, z-score: -0.251; total luciferase, % of control: 76.9; call: inactive
ZNF774 #1 — total luciferase, z-score: 0.524; total luciferase, % of control: 92.3; call: inactive
ZNF774 #2 — total luciferase, z-score: -0.31; total luciferase, % of control: 75.7; call: inactive
ZNF774 #3 — total luciferase, z-score: 1.81; total luciferase, % of control: 118; call: inactive
PCMT1 #1 — total luciferase, z-score: -0.893; total luciferase, % of control: 64.1; call: inactive
PCMT1 #2 — total luciferase, z-score: -0.424; total luciferase, % of control: 73.4; call: inactive
PCMT1 #3 — total luciferase, z-score: -1.34; total luciferase, % of control: 55.3; call: inactive
